Source: PubChem BioAssay AID1347423 (Functional Genomics Laboratory (NCATS/FGL), 2020)
Screen size: about 52,000 sequences; about 210 (0.4%) were called active.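 The calls were made as follows: active = gene whose silencing raises cell survival under the drug, median off-target-corrected z-score across its silencing RNAs 2 or more; inactive = the rest.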 The list shows a part of the results.

Assay: Resistance to Poly (ADP-Ribose) Polymerase inhibitor: Gene Identification via Genome-wide siRNA Screen
Conditions: mouse BRCA2 R2336H ES cells, olaparib, CellTiter-Glo viability; stronger effect = higher value
Outline: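 Genome-wide siRNA screen (3 siRNAs/gene, 20 nM) in mouse ES cells carrying hypomorphic BRCA2 R2336H; olaparib 500 nM added 48 h post-transfection, CellTiter-Glo viability 72 h later. Normalized to plate-median negative control; MAD z-scores, gene median, seed-adjusted.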

| Sequence | z-score |
| --- | --- |
| CAAUAGAGACUAGCCUCAUTT against Olfr160 | inactive: 0.251 |
| CAAGAAGGUCAUGUUAUUGTT against Olfr106 | inactive: 0.823 |
| GGCACCCAUUCCUAAAAUGTT against Nsbp1 | inactive: 0.0676 |
| GGCCUUUCCUCUACACCCUTT against BC033606 | inactive: 1.11 |
| GGACCUUACUCAUCUAGCATT against D630004N19Rik | inactive: 1.5 |
| GGAGCACAUCUUUUCUGCCTT against Mixl1 | inactive: -0.974 |
| CGAAUUAAUCUCACAGGAGTT against 3100002B05Rik | inactive: 1.26 |
| CCAUCUGUCAUGACUACCUTT against Timm10 | inactive: -0.165 |
| GGACAACACCCUGAUGAUATT against V1rh9 | inactive: -0.57 |
| GGAAGCAGUCAGCUAACACTT against Baz1b | inactive: -2.09 |
| GGUAUUCCAGAGAAAGAUATT against Zfp207 | inactive: -2.2 |
| GCUGAGAUCUUACUAUUAGTT against Olfr1239 | inactive: 0.0116 |
| GUGCCAUGAAGAUCUCAAATT against 1110014K05Rik | inactive: 1.88 |
| GCCUCAACCAAUCAUGAAGTT against Dbp | inactive: 1.06 |
| CCUAAUGGUUCAGGAUACGTT against Pcdhb5 | inactive: 0.473 |
| GCUGACAACUGAUGGGAAGTT against C330027G06Rik | inactive: -1.41 |
| GGAGAUCCACGAUUUGUUCTT against Adck1 | inactive: 0.245 |
| GGUGAAACGACUGUUAAGUTT against Pde7b | inactive: -0.925 |
| GGAUCAUGUGUCAGUAACATT against Hmgn2 | inactive: -0.568 |
| GGGCAGCAGCAAUUUCUGUTT against Ahcyl1 | inactive: 1.38 |
| GCUCACCUUUCUUGAGAAATT against 4930579C12Rik | inactive: 0.795 |
| CGCUAUGGUUUCUCAGCUUTT against Myh4 | inactive: 0.634 |
| GCCUAUUCCUACUUAUAACTT against 6030408C04Rik | inactive: 0.537 |
| GGAUGUAUAACUUUUUCUCTT against Pltp | inactive: 1.02 |
| GCUAAGAAUGAGCAUUAUCTT against Npr2 | inactive: -0.915 |
| GCCCAUCAGACUUCUACUUTT against Slc22a17 | inactive: -1.01 |
| GUGCAAAUUACAGAAAUUCTT against Rkhd3 | inactive: 0.22 |
| GAUACUCUUUGGGCCAUUGTT against V2r4 | inactive: -1.93 |
| GGAAUUUCUACGGAAACAATT against Myom2 | inactive: 1.27 |

Part of the list above, bar-delimited:
Sequence | z-score
CCAUCUGUCAUGACUACCUTT against Timm10 | inactive: -0.165
GCCUAUUCCUACUUAUAACTT against 6030408C04Rik | inactive: 0.537
